Results published in patent US20040152903A1, “6-chloro-3-pyridylmethylpropylamine derivatives, preparation process thereof and bactericides” (priority 2004, published 2004).
At least one read-out could not be matched to a standard name with certainty.

Test system: wheat powdery mildew
Assay: Permeable mobility fungicidal effect test in leaf section of wheat powdery mildew
Type: in vivo
Conditions: length of non-contracted area relative to compound (m-2); 200 mg/l, 0.5 μl applied to wheat leaf (Abukumawase)
Experimental: (Permeable Mobility Fungicidal Effect Test in Leaf Section of Wheat Powdery Mildew) In the test example 4, permeable mobility fungicidal effect test was performed on the leaf section of wheat powdery mildew with regard to the compounds I-1 to 27 according to the present invention and the comparative compounds (a) to (d), and (m-1) to (m-3) with the method described later. <Test Method> The compound in the form of a wettable powder obtained by Formulation 2 or the like was diluted and suspended with water to a predetermined concentration (200 mg/l), and 0.5 μl of the suspension was applied to a 2 to 3 cm leaf portion from the root of the three leaves of the 4th to 4.5th leaf period wheat (variety: Abukumawase) cultured by using a square plastic pot (size: 6.4 cm×6.4 cm). After these wheat leaves were subject to still standing in a glass house (temperature: 20 to 24° C., relative humidity: 20 to 70 RH) for one day, the spores of wheat powdery mildew were inoculated over the leaves by sprinkling the same with a brush from an infected leaf, a disease was contracted in the same glass house. The length of a non-contracted area generated from the applied portion to the direction of the leaf top was measured, and a relative mobility to the compound (m-2) was calculated with the following calculation […] by using the comparative compound (m-2) as a standard compound. […]

SMILES | Relative Mobility
COc1cccc(CC(C)CN(C)Cc2ccc(Cl)nc2)c1 (centres unmarked) [(m-3), 6-chloro-N-[3-(3-methoxyphenyl)-2-methylpropyl]-N-methyl-3-pyridylmethylamine, reference compound] | 1
CC(Cc1ccc(C(C)(C)C)cc1)CN(C)Cc1ccc(Cl)nc1 (centres unmarked) [(m-2), N-[3-(4-t-butylphenyl)-2-methylpropyl]-6-chloro-N-methyl-3-pyridylmethylamine, reference compound] | 1
